Here are results for two substances from article PMC10333293, “Membrane recruitment of the polarity protein Scribble by the cell adhesion receptor TMIGD1” (Communications Biology, 2023).

No constants are given. Whether binding was seen depends on the method and setting. Binding seen in cells or lysates may run through a third protein. Binding calls can cover weak binding; strength is not graded here.

The experiment has as its target T1, hTMIGD1 full length (AA 1-262) (human) (UniProt Q6UXZ0).
T1 sequence: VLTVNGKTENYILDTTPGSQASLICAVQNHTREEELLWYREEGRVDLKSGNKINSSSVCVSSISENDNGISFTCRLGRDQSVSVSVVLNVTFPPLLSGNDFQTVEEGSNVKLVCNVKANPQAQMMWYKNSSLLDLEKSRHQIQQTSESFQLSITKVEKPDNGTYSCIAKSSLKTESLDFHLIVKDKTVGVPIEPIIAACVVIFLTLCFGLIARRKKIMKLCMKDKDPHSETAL
Nature of the experiment: co-IP; HEK293 cells stably transfected with TMIGD1 constructs and transiently transfected with Scrib constructs, Erbin or Lano/LRRC1; IP with anti-TMIGD1 antibodies; in one experiment with or without TAK-243; lysis in 25 mM Tris-HCl pH 7.4, 1% NP-40, 150 mM NaCl, 5% glycerol.

For “hScrib/PDZ (AA 665-1630) (from UniProt Q14160-1) (domain or fragment)”, the binding entry is listed as “binds”.

On to “hScrib/WT (AA 2-1630) (from UniProt Q14160-1)”, for which the binding result was “binds weakly”.
